Laboratory results: PubChem BioAssay AID1508597 (Cure First, 2020)
Here is an unselected part of about 2,100 reagents tested. 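Calls flag viability under 80% in either arm, not effects specific to rucaparib; the reference for percent is not stated.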 Some reagents were tested in more than one well and are listed for each. No sequences are given here. Not given: the 100% reference.

- Test: 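Knock-downs altering ovarian cancer cell survival with or without PARP inhibitor rucaparib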 (primary screen)
- Cell system: human ovarian carcinoma lines grown from tumours: OCI-P5x (papillary serous) and OCI-C5x (clear cell)
- Knock-down reagent: siRNA pool against human genes, 1.25 pmol siRNA per well
- Time to read-out: 72 h or 96 h, depending on the cell culture
- Conditions: rucaparib 20 µM (about IC30) or vehicle, present until read-out
- Detection: 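ATP luminescence measured at 72 or 96 h according to the culture, then normalised and expressed as percent viability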
- Reading the numbers: viability, normalised: higher = more viable cells remaining
- Rule for the call: 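a well counts as a hit if its normalised viability is under 80 percent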
- Calls: active = viability under 80%; inactive = viability 80% or more

Gene	rucaparib or vehicle	cell line	technical replicate	viability, normalised (%)	outcome
HDAC10 (histone deacetylase 10)	Rucaparib	OCI-C5x (clear cell)	1	46.9	active
HDAC10 (histone deacetylase 10)	Rucaparib	OCI-C5x (clear cell)	2	39.2	active
HDAC10 (histone deacetylase 10)	Rucaparib	OCI-C5x (clear cell)	3	48.6	active
HDAC10 (histone deacetylase 10)	Rucaparib	OCI-P5x (serous)	1	57.1	active
HDAC10 (histone deacetylase 10)	Rucaparib	OCI-P5x (serous)	2	55.2	active
HDAC10 (histone deacetylase 10)	Rucaparib	OCI-P5x (serous)	3	47	active
HDAC10 (histone deacetylase 10)	Vehicle	OCI-C5x (clear cell)	1	40.8	active
HDAC10 (histone deacetylase 10)	Vehicle	OCI-C5x (clear cell)	2	39.9	active
HDAC10 (histone deacetylase 10)	Vehicle	OCI-C5x (clear cell)	3	55.8	active
HDAC10 (histone deacetylase 10)	Vehicle	OCI-P5x (serous)	1	53.5	active
HDAC10 (histone deacetylase 10)	Vehicle	OCI-P5x (serous)	2	72.1	active
HDAC10 (histone deacetylase 10)	Vehicle	OCI-P5x (serous)	3	97.7	inactive
NFAM1 (NFAT activating protein with ITAM motif 1)	Rucaparib	OCI-C5x (clear cell)	1	59.4	active
NFAM1 (NFAT activating protein with ITAM motif 1)	Rucaparib	OCI-C5x (clear cell)	2	66.4	active
NFAM1 (NFAT activating protein with ITAM motif 1)	Rucaparib	OCI-C5x (clear cell)	3	62.4	active
NFAM1 (NFAT activating protein with ITAM motif 1)	Rucaparib	OCI-P5x (serous)	1	54	active
NFAM1 (NFAT activating protein with ITAM motif 1)	Rucaparib	OCI-P5x (serous)	2	60.4	active
NFAM1 (NFAT activating protein with ITAM motif 1)	Rucaparib	OCI-P5x (serous)	3	60	active
NFAM1 (NFAT activating protein with ITAM motif 1)	Vehicle	OCI-C5x (clear cell)	1	45.4	active
NFAM1 (NFAT activating protein with ITAM motif 1)	Vehicle	OCI-C5x (clear cell)	2	58.9	active
NFAM1 (NFAT activating protein with ITAM motif 1)	Vehicle	OCI-C5x (clear cell)	3	55.2	active
NFAM1 (NFAT activating protein with ITAM motif 1)	Vehicle	OCI-P5x (serous)	1	58.9	active
NFAM1 (NFAT activating protein with ITAM motif 1)	Vehicle	OCI-P5x (serous)	2	66	active
NFAM1 (NFAT activating protein with ITAM motif 1)	Vehicle	OCI-P5x (serous)	3	73.5	active
PIK3CA	Rucaparib	OCI-C5x (clear cell)	1	35.9	active
PIK3CA	Rucaparib	OCI-C5x (clear cell)	1	33.6	active
PIK3CA	Rucaparib	OCI-C5x (clear cell)	2	29.7	active
PIK3CA	Rucaparib	OCI-C5x (clear cell)	2	35.7	active
PIK3CA	Rucaparib	OCI-C5x (clear cell)	3	36.3	active
PIK3CA	Rucaparib	OCI-C5x (clear cell)	3	37.7	active
PIK3CA	Rucaparib	OCI-P5x (serous)	1	76.9	active
PIK3CA	Rucaparib	OCI-P5x (serous)	1	99.1	inactive
PIK3CA	Rucaparib	OCI-P5x (serous)	2	90.5	inactive
PIK3CA	Rucaparib	OCI-P5x (serous)	2	82.6	inactive
PIK3CA	Rucaparib	OCI-P5x (serous)	3	107	inactive
PIK3CA	Rucaparib	OCI-P5x (serous)	3	76.9	active
PIK3CA	Vehicle	OCI-C5x (clear cell)	1	52.7	active
PIK3CA	Vehicle	OCI-C5x (clear cell)	1	43.6	active
PIK3CA	Vehicle	OCI-C5x (clear cell)	2	49.7	active
PIK3CA	Vehicle	OCI-C5x (clear cell)	2	49	active
PIK3CA	Vehicle	OCI-C5x (clear cell)	3	38	active
PIK3CA	Vehicle	OCI-C5x (clear cell)	3	46	active
PIK3CA	Vehicle	OCI-P5x (serous)	1	94.2	inactive
PIK3CA	Vehicle	OCI-P5x (serous)	1	77.5	active
PIK3CA	Vehicle	OCI-P5x (serous)	2	85.6	inactive
PIK3CA	Vehicle	OCI-P5x (serous)	2	81.5	inactive
PIK3CA	Vehicle	OCI-P5x (serous)	3	86.5	inactive
PIK3CA	Vehicle	OCI-P5x (serous)	3	85.8	inactive

Looked up above.
For “viability, normalised (%)”, NFAM1 (NFAT activating protein with ITAM motif 1), rucaparib or vehicle Rucaparib, cell line OCI-C5x (clear cell), technical replicate 3 shows 62.4
HDAC10 (histone deacetylase 10), rucaparib or vehicle Vehicle, cell line OCI-C5x (clear cell), technical replicate 2, viability, normalised (%): 39.9
Under “outcome”, NFAM1 (NFAT activating protein with ITAM motif 1), rucaparib or vehicle Vehicle, cell line OCI-C5x (clear cell), technical replicate 1 reads active
